Experimental data: PubChem BioAssay AID504764 (Drosophila RNAi Screening Center, 2011)
The deposit covers about 22,000 reagents; shown is a random part of those with a known target gene and a result. Of all reagents, 403 (1.9%) are marked active. 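Unnormalised raw counts per well; ratio z-scores behind the hit calls and whether each hit raises or lowers signal are not deposited.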 A number with no mark means an inactive call. Reagent sequences are not shown. Not given: the amount of reagent.

Test: 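Knock-downs that raise or lower a Notch target reporter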 (primary screen)
Cell system: Drosophila Kc167 cells
Reagent: long dsRNA against Drosophila genes
Time to read-out: about 5 days (4 days dsRNA, then 24 h after transfection)
Conditions: transfection of constitutively active membrane-tethered Notch lacking the extracellular domain, read 24 h later
Detection: 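Light from a Notch-responsive E(spl)m3 luciferase reporter under active Notch, with control-promoter and no-Notch reporter wells to normalise; raw counts from paired wells a and b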
Direction: induced reporter light, run 1, well a and induced reporter light, run 1, well b: higher = more light from the Notch target reporter with active Notch; control promoter light, run 1, well a and control promoter light, run 1, well b: higher = more light from the viral control promoter (cell number, transfection, viability); uninduced reporter light, run 1, well a: higher = more light from the Notch target reporter without active Notch
Call rule: 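Hit if the duplicate-averaged log2 ratio of induced to control-promoter light gives a plate-wise z beyond ±2, or induced to uninduced beyond ±1.8; weak-control or discordant-duplicate wells dropped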
Meaning of the calls: active = modifier hit (raised or lowered Notch signal); inactive = not a hit

induced reporter light, run 1, well a | induced reporter light, run 1, well b | control promoter light, run 1, well a | control promoter light, run 1, well b | uninduced reporter light, run 1, well a | target | PubChem SID
1.32e5 | 1.53e5 | 1.14e5 | 1.16e5 | 12000 | CG4074 | SID104191544
66260 | 77955 | 75810 | 72820 | 5420 | Osi18 (Osiris 18) | SID104191973
98240 | 86515 | 91240 | 66155 | 5270 | Dfd (Deformed) | SID104192385
1.65e5 | 1.35e5 | 1.89e5 | 2.26e5 | 11220 | CG1840 | SID104199598
82110 | 96675 | 97885 | 97135 | 7080 | Syngr (Synaptogyrin) | SID104185795
3720 | 3865 | 2715 | 2540 | 845 | a (arc) | SID104184459
25950 | 29245 | 26360 | 19605 | 1435 | a (arc) | SID104184460
1.81e5 | 1.47e5 | 2.26e5 | 1.99e5 | 15088 | CG14253 | SID104194540
1.72e5 | 1.68e5 | 1.80e5 | 2.01e5 | 12682 | CG13855 | SID104194497
1.12e5 | 1.08e5 | 1.89e5 | 2.13e5 | 9300 | Ir11a (Ionotropic receptor 11a) | SID104199491
2.08e5 | 2.06e5 | 2.23e5 | 2.25e5 | 15255 | CBP (sarcoplasmic calcium-binding protein) | SID104197538
1.66e5 | 1.79e5 | 2.17e5 | 1.89e5 | 11830 | Mfe2 (peroxisomal Multifunctional enzyme type 2) | SID104199661
2.00e5 | 2.03e5 | 2.03e5 | 1.61e5 | 17165 | tup (tailup) | SID104183419
1.76e5 | 1.52e5 | 1.91e5 | 1.86e5 | 12350 | Zip99C (Zinc/iron regulated transporter-related protein 99C) | SID104196112

Next part, starting with the last 4 of the part before.
induced reporter light, run 1, well a | induced reporter light, run 1, well b | control promoter light, run 1, well a | control promoter light, run 1, well b | uninduced reporter light, run 1, well a | target | PubChem SID
2.08e5 | 2.06e5 | 2.23e5 | 2.25e5 | 15255 | CBP (sarcoplasmic calcium-binding protein) | SID104197538
1.66e5 | 1.79e5 | 2.17e5 | 1.89e5 | 11830 | Mfe2 (peroxisomal Multifunctional enzyme type 2) | SID104199661
2.00e5 | 2.03e5 | 2.03e5 | 1.61e5 | 17165 | tup (tailup) | SID104183419
1.76e5 | 1.52e5 | 1.91e5 | 1.86e5 | 12350 | Zip99C (Zinc/iron regulated transporter-related protein 99C) | SID104196112
1.73e5 | 1.59e5 | 2.31e5 | 2.59e5 | 14640 | Ktl (Kctd12-like) | SID104194062
82175 (active) | 59910 | 55635 | 51735 | 3640 | CG10418 | SID104189512
1.63e5 | 1.85e5 | 2.47e5 | 2.37e5 | 12675 | Mal-B2 (Maltase B2) | SID104182209
2.54e5 | 2.68e5 | 2.77e5 | 2.60e5 | 13420 | exex (extra-extra) | SID104190764
66805 | 85915 | 1.30e5 | 1.26e5 | 2385 | Rac1 | SID104188480
57695 | 73785 | 62705 | 51965 | 8595 | Tailor | SID104192318
1.65e5 | 1.69e5 | 2.40e5 | 2.23e5 | 16780 | CG6013 | SID104195739
2.05e5 | 1.80e5 | 2.50e5 | 2.80e5 | 17465 | CG30484 | SID104185249
1.12e5 | 1.06e5 | 1.53e5 | 1.36e5 | 8850 | CG18368 | SID104186523
1.92e5 | 1.94e5 | 2.04e5 | 1.89e5 | 13840 | CG14856 | SID104194772
79455 | 89435 | 1.80e5 | 1.72e5 | 8290 | Smox (Smad on X) | SID104198508
1.52e5 | 1.41e5 | 2.01e5 | 1.66e5 | 10720 | Mlc-c (Myosin light chain cytoplasmic) | SID104198475
1.93e5 | 2.63e5 | 2.89e5 | 2.81e5 | 17150 | CaMKI (Calcium/calmodulin-dependent protein kinase I) | SID104196954
2.62e5 | 2.33e5 | 2.36e5 | 2.19e5 | 14100 | Fhos (Formin homology 2 domain containing) | SID104188735
1.18e5 | 89695 | 80285 | 37585 | 8620 | Fhos (Formin homology 2 domain containing) | SID104190337
1.53e5 | 1.30e5 | 78385 | 30435 | 8855 | Fhos (Formin homology 2 domain containing) | SID104190338
1.98e5 (active) | 1.94e5 | 1.78e5 | 1.23e5 | 8315 | Fhos (Formin homology 2 domain containing) | SID104190339
1.37e5 | 1.60e5 | 2.49e5 | 2.04e5 | 12460 | Nadsyn (NAD synthetase) | SID104200014
1.31e5 | 1.51e5 | 2.88e5 | 2.66e5 | 11300 | CG15578 | SID104197858
94580 | 87270 | 1.78e5 | 1.70e5 | 7480 | Syt7 (Synaptotagmin 7) | SID104196922
1.22e5 | 1.07e5 | 1.85e5 | 2.26e5 | 7595 | Syt7 (Synaptotagmin 7) | SID104196951
